# Data as given in PubChem BioAssay AID504774 (Drosophila RNAi Screening Center, 2011).
# Purpose: 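Fly genes whose loss alters survival after alkylation damage to DNA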 (primary screen)
# System: Drosophila Kc167 cells
# Reagent: long dsRNA against Drosophila genes, about 0.25 µg dsRNA per well
# Duration: about 6 days: 3 days knock-down, then 3 days with or without MMS
# Conditions: methyl methanesulphonate 0.004% (w/v) for 3 days after knock-down
# Measurement: 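ATP-dependent luminescence as a measure of live cells in MMS-exposed wells, quantile normalised within each plate, with replicate values also given as a mean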
# Scale: mean viability with MMS and viability with MMS: higher = more surviving cells after MMS
# The deposit covers about 23,000 reagents; shown is a random part of those that have a named target and a result. 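Values are quantile-normalised luminescence on an arbitrary scale; higher means more cells surviving MMS.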 Names joined by + are all predicted targets of the reagent. Further read-outs or replicates are left out here.
target,PubChem SID,mean viability with MMS,"viability with MMS, replicate 1"
CG33235 (GeneID 2768871),SID104199433,3.61e6,4.06e6
CG31141 (GeneID 318605),SID104193438,3.56e6,4.02e6
Lgr4 (GeneID 5740505),SID104198761,3.33e6,3.76e6
Lgr4 (GeneID 5740505),SID104198762,3.33e6,3.79e6
Lgr4 (GeneID 5740505),SID104199676,3.58e6,4.03e6
p130CAS (GeneID 38021),SID104187654,3.62e6,3.94e6
p130CAS (GeneID 38021),SID104188049,3.58e6,4.01e6
CG8066 (GeneID 41766),SID104196166,3.51e6,3.92e6
CG10834 (GeneID 35438),SID104183485,3.55e6,3.99e6
Vps45 (GeneID 41153),SID104196190,3.64e6,4.11e6
lola (GeneID 44548),SID104185012,3.25e6,3.85e6
lola (GeneID 44548),SID104185013,3.50e6,3.93e6
lola (GeneID 44548),SID104185014,3.61e6,4.10e6
lola (GeneID 44548),SID104185015,3.33e6,3.90e6
lola (GeneID 44548),SID104185016,3.57e6,3.91e6
lola (GeneID 44548),SID104186530,3.44e6,3.90e6
lola (GeneID 44548),SID104186531,3.45e6,3.97e6
lola (GeneID 44548),SID104186532,3.59e6,4.10e6
lola (GeneID 44548),SID104186533,3.44e6,3.87e6
lola (GeneID 44548),SID104186534,2.99e6,3.64e6
lola (GeneID 44548),SID104187438,3.55e6,3.90e6
lola (GeneID 44548),SID104187439,3.39e6,3.81e6
CG16904 (GeneID 41212),SID104194953,3.57e6,4.10e6
dpr7 (GeneID 2768865),SID104196901,3.66e6,4.08e6
gdl-ORF39 + gdl,SID104191142,3.47e6,3.92e6
CG31050 (GeneID 318571),SID104193675,3.46e6,3.94e6
CG12861 (GeneID 36628),SID104185993,3.54e6,4.03e6
CG12861 (GeneID 36628),SID104201572,3.59e6,4.05e6
CG10587 (GeneID 40318),SID104191419,3.57e6,4.00e6
Srg2 + CG42826,SID104190473,3.56e6,4.08e6
Srg2 + CG42826,SID104190474,3.59e6,3.94e6
WASp (GeneID 43402),SID104194824,3.53e6,3.90e6
Hk (GeneID 31955),SID104197430,3.54e6,3.98e6
Hk (GeneID 31955),SID104198466,3.33e6,3.78e6
Cog6 (GeneID 35953),SID104186598,3.72e6,4.33e6
CG17010 (GeneID 34650),SID104182351,3.67e6,4.28e6
CG4218 (GeneID 34848),SID104181731,3.58e6,4.10e6
CAH6 (GeneID 43701),SID104195297,3.40e6,3.92e6
Clk (GeneID 38872),SID104190909,3.49e6,4.00e6
Ire1 (GeneID 42358),SID104195398,3.25e6,3.72e6
Syx6 (GeneID 40373),SID104186824,3.54e6,4.02e6
CG13337 (GeneID 36518),SID104186163,3.63e6,4.14e6

No new results follow: an excerpt of the list.
target,PubChem SID,mean viability with MMS,"viability with MMS, replicate 1"
CG10587 (GeneID 40318),SID104191419,3.57e6,4.00e6
Srg2 + CG42826,SID104190473,3.56e6,4.08e6
Srg2 + CG42826,SID104190474,3.59e6,3.94e6
WASp (GeneID 43402),SID104194824,3.53e6,3.90e6
Hk (GeneID 31955),SID104197430,3.54e6,3.98e6
Hk (GeneID 31955),SID104198466,3.33e6,3.78e6
Cog6 (GeneID 35953),SID104186598,3.72e6,4.33e6
CG17010 (GeneID 34650),SID104182351,3.67e6,4.28e6

The list goes on:
target,PubChem SID,mean viability with MMS,"viability with MMS, replicate 1"
MrgBP (GeneID 35880),SID104186209,3.52e6,3.97e6
Cht8 (GeneID 37390),SID104184338,3.34e6,3.81e6
CG34396 (GeneID 37398),SID104184037,3.39e6,3.87e6
CG34396 (GeneID 37398),SID104184038,3.28e6,3.76e6
CG14071 (GeneID 34507),SID104182166,3.74e6,4.15e6
Dek (GeneID 47906),SID104187210,3.38e6,3.79e6
CG13299 (GeneID 38724),SID104189765,3.47e6,3.98e6
Sec61alpha (GeneID 33905),SID104183048,3.08e6,3.44e6
CG11679 (GeneID 32515),SID104199207,3.43e6,3.68e6
CG6149 (GeneID 39277),SID104190385,3.48e6,3.92e6
CG9667 (GeneID 40960),SID104196327,3.39e6,3.92e6
Nepl9 (GeneID 35020),SID104182047,3.51e6,4.00e6
Ppa (GeneID 37602),SID104184390,3.80e6,4.25e6
pyd (GeneID 41062),SID104192504,3.57e6,4.09e6
pyd (GeneID 41062),SID104194179,3.85e6,4.28e6
pyd (GeneID 41062),SID104194237,3.52e6,4.07e6
pyd (GeneID 41062),SID104194301,3.67e6,4.17e6
pyd (GeneID 41062),SID104196339,3.84e6,4.36e6
pyd (GeneID 41062),SID104196340,3.42e6,3.81e6
pyd (GeneID 41062),SID104196833,3.62e6,3.98e6
pyd (GeneID 41062),SID104201243,3.46e6,4.00e6
pyd (GeneID 41062),SID104202473,3.50e6,4.01e6
Golgin104 (GeneID 39810),SID104190251,3.32e6,3.76e6
CG13215 (GeneID 36182),SID104186129,3.53e6,3.93e6
gro (GeneID 43162),SID104196754,3.51e6,3.90e6
Ced-12 (GeneID 34633),SID104182632,3.50e6,3.93e6
asRNA:Eig63F-2 + Eip63F-1,SID104201188,3.58e6,4.01e6
Gcn2 (GeneID 43709),SID104196470,3.62e6,4.11e6
CG42565 (GeneID 37598),SID104183946,3.79e6,4.05e6
RpS24 (GeneID 37589),SID104184206,2.97e6,3.82e6
CG34435 (GeneID 31471),SID104197878,3.59e6,3.97e6
CG32236 (GeneID 249170),SID104187909,3.42e6,3.90e6
TwdlJ (GeneID 43206),SID104195604,3.57e6,4.04e6
larp (GeneID 53567),SID104194520,3.48e6,3.84e6
larp (GeneID 53567),SID104196776,3.45e6,3.94e6
larp (GeneID 53567),SID104201497,3.37e6,3.90e6
snk (GeneID 41607),SID104196852,3.53e6,4.16e6
CG12325 (GeneID 36144),SID104185922,3.47e6,3.86e6
gnu (GeneID 39615),SID104190289,3.59e6,4.13e6
CG14860 (GeneID 41803),SID104194775,3.56e6,4.06e6
CG31386 (retired record) (GeneID 318706),SID104202133,3.40e6,3.89e6
CG31386 (retired record) (GeneID 318706),SID104202543,3.57e6,4.06e6
Cyp301a1 (GeneID 36378),SID104187157,3.59e6,4.21e6
sas (GeneID 40861),SID104192423,3.42e6,3.94e6
Tmx3 (GeneID 39775),SID104190263,3.64e6,4.26e6
